No constants are given. Whether binding was seen depends on the method and setting. In cells and extracts the contact can be indirect. For part of these data: Binding can be weak; no strength is given.
Key:
[1] = target: TbPam27-myc (C-terminally triple c-myc-tagged TbPam27) (Trypanosoma brucei) (UniProt Q388L6); assay: co-IP; Cells co-expressing LDH-DHFR-HA and TbPam27-myc, grown with 50 μM aminopterin and 1 mM sulfanilamide for 12 h (stalled presequence intermediate). Digitonin-solubilised mitochondrial extract; IP by the HA- or the myc-tag; immunoblot.
[2] = target: MCP12ΔI-myc (truncated, C-terminally myc-tagged mitochondrial carrier protein MCP12) (T. brucei) (UniProt Q388W2); assay: co-IP; Cells co-expressing MCP12ΔI-myc and TbPam27-HA (stalled carrier intermediate). Digitonin-solubilised mitochondrial extract; IP by the HA- or the myc-tag; immunoblot.
[3] = target: TbPam27-HA (C-terminally triple HA-tagged TbPam27) (Trypanosoma brucei) (UniProt Q388L6); assay: as above
[4] = target: TbPam16-HA (C-terminally triple HA-tagged TbPam16) (Trypanosoma brucei) (UniProt Q38D74); assay: co-IP; Cells expressing one C-terminally triple myc- or HA-tagged bait. Mitochondria-enriched fraction solubilised in 1% digitonin, 20 mM Tris-HCl pH 7.4, 100 mM NaCl, 0.1 mM EDTA, 10% glycerol. Bait captured on anti-HA or anti-c-myc beads, 4°C, 1 h; immunoblot of the eluate. TbPam18-HA and TbPam16-HA were also tested in TbPam27 RNAi cells induced for two days.
[5] = target: TbPam27-myc (C-terminally triple c-myc-tagged TbPam27) (Trypanosoma brucei) (UniProt Q388L6); assay: as above

By UniProt entry, the sequences of proteins in these tests, tags left out. Where a name states a change or a piece, a line headed by the entry shows the natural chain unless it says otherwise.
UniProt Q388L6: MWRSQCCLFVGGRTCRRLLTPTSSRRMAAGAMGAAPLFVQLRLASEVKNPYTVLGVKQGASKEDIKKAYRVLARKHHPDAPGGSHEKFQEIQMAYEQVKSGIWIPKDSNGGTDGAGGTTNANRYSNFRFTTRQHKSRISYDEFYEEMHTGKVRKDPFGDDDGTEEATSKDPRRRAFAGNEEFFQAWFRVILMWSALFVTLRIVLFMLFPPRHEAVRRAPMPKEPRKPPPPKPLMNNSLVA
UniProt Q388W2: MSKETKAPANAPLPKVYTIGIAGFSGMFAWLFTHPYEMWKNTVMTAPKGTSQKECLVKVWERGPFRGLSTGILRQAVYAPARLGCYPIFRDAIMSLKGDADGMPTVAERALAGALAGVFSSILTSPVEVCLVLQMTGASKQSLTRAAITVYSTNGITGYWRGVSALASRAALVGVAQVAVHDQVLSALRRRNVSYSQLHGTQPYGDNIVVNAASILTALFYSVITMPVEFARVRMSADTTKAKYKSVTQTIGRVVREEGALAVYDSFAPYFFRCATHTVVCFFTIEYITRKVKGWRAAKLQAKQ
UniProt Q38D74: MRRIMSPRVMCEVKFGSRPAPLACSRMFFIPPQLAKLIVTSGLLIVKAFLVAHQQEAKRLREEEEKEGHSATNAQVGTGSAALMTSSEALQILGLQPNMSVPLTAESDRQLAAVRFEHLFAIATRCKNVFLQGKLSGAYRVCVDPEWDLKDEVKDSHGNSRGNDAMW
UniProt Q38E31: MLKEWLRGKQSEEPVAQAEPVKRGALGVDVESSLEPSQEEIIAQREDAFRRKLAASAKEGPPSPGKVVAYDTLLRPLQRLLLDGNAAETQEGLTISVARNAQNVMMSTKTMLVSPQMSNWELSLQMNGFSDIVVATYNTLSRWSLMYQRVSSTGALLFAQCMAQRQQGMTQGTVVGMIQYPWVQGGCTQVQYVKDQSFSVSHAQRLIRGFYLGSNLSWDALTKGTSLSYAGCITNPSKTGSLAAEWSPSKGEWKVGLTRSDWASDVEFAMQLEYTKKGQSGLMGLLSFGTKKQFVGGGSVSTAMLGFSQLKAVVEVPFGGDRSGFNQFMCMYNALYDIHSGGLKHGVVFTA
UniProt Q38ED9: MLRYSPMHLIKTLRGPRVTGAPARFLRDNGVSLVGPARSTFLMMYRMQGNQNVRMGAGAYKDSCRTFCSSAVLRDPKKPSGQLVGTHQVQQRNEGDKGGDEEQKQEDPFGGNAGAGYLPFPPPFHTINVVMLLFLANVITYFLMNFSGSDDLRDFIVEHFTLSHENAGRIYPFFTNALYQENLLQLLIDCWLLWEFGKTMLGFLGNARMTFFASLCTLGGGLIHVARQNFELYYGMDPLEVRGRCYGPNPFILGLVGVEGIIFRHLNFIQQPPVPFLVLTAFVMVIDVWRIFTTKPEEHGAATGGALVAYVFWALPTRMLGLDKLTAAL

| binding [1] | binding [2] | binding [3] | binding [4] | binding [5] | Substance |
| --- | --- | --- | --- | --- | --- |
| binds |  |  |  |  | ATOM40 (from UniProt Q38E31) |
| binds | no binding | binds | no binding | binds | TimRhom I (from UniProt Q38ED9) |

Source: paper PMC7064343
